We go through 23 targets from the supplement of paper PMC10849652.

Amino acid sequences for entries named in this document (tags omitted). A change or cut given only in a name is not applied to a line headed by its entry.
UniProt Q9NPA0: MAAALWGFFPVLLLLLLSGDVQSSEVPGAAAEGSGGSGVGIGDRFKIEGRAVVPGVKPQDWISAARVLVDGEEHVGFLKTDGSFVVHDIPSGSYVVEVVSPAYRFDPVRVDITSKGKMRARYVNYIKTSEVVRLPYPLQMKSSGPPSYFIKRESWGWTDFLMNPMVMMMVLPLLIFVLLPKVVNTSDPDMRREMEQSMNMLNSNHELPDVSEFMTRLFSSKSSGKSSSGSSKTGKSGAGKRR
UniProt Q14152, whole entry, looked up: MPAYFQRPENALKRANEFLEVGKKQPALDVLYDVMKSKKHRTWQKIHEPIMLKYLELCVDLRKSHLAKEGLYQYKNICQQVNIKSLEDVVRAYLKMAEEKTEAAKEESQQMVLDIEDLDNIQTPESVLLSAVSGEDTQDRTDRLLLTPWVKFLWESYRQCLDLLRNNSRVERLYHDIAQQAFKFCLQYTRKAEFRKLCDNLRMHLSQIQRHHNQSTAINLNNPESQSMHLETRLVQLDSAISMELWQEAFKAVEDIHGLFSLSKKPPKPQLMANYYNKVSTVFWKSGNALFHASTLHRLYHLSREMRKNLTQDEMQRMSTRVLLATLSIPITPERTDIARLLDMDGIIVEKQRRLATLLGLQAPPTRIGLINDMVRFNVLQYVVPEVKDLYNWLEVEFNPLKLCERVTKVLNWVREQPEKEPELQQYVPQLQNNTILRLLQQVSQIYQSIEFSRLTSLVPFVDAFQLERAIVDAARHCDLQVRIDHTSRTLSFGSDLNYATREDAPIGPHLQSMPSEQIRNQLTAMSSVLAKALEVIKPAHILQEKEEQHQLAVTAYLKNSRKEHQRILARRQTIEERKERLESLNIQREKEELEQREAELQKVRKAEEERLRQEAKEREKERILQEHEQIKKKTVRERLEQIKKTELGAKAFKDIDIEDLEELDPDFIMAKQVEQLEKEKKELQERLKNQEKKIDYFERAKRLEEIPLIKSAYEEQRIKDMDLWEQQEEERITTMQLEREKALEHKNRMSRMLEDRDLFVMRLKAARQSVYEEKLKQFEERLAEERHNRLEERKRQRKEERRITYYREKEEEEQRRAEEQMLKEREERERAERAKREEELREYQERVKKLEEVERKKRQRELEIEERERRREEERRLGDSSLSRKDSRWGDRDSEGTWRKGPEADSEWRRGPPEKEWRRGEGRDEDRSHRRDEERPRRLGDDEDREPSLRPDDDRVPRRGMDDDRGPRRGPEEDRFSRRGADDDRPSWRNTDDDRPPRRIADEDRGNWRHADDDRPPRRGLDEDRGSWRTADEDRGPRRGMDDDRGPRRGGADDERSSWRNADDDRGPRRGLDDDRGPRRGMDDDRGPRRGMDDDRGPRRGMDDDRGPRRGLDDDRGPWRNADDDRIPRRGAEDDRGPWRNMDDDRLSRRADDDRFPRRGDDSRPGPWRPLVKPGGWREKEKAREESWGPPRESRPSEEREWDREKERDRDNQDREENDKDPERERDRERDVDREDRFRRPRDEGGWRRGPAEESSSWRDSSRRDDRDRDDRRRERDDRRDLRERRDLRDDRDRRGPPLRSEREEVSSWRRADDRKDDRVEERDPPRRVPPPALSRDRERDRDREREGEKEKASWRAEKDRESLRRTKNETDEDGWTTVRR
UniProt P11171, whole entry, looked up: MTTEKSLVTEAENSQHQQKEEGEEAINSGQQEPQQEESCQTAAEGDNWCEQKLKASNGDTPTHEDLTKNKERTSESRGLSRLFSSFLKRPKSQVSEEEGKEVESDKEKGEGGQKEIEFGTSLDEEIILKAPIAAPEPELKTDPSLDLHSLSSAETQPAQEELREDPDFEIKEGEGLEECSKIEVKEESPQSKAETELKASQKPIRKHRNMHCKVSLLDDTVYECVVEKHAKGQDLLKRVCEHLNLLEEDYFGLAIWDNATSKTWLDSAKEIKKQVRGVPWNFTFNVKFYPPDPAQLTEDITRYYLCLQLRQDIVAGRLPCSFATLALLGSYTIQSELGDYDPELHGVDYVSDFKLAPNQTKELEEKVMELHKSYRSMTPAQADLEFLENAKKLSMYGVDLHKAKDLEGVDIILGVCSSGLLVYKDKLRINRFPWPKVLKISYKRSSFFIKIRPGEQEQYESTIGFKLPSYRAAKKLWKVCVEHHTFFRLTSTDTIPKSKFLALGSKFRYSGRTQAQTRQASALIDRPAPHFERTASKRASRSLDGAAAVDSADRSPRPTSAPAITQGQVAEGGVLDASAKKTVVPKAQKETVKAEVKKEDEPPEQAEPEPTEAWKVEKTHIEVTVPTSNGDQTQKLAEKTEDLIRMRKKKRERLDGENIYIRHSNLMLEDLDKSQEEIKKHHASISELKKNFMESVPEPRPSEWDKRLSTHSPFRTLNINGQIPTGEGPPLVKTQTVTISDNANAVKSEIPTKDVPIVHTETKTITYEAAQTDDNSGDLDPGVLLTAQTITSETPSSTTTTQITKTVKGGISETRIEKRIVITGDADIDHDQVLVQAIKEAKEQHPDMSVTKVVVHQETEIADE
UniProt O43768: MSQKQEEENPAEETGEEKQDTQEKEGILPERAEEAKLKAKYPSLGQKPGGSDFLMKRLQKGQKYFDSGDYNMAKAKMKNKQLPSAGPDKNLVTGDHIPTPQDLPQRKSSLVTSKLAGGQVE
UniProt Q6IA86: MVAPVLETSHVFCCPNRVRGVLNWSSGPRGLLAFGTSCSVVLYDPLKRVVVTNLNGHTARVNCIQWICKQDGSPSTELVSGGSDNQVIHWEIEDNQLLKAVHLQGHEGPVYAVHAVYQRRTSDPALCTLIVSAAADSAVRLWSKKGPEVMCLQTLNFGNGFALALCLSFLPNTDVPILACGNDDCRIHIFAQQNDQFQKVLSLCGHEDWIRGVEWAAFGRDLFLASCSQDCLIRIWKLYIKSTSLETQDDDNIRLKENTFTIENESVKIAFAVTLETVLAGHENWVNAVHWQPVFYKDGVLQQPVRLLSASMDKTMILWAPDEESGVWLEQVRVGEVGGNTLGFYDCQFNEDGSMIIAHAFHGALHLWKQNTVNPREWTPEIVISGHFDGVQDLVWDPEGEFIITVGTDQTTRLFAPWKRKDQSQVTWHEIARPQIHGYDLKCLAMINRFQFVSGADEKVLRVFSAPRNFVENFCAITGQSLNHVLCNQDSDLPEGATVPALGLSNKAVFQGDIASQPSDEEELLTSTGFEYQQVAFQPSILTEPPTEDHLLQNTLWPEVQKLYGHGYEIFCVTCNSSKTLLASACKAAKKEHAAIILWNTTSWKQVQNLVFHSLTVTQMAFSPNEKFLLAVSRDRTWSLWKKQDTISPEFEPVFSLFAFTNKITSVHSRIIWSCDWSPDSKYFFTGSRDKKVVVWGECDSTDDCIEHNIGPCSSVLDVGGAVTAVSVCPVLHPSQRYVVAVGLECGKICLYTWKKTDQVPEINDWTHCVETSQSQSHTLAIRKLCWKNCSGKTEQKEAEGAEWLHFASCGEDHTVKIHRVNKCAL
UniProt P57772: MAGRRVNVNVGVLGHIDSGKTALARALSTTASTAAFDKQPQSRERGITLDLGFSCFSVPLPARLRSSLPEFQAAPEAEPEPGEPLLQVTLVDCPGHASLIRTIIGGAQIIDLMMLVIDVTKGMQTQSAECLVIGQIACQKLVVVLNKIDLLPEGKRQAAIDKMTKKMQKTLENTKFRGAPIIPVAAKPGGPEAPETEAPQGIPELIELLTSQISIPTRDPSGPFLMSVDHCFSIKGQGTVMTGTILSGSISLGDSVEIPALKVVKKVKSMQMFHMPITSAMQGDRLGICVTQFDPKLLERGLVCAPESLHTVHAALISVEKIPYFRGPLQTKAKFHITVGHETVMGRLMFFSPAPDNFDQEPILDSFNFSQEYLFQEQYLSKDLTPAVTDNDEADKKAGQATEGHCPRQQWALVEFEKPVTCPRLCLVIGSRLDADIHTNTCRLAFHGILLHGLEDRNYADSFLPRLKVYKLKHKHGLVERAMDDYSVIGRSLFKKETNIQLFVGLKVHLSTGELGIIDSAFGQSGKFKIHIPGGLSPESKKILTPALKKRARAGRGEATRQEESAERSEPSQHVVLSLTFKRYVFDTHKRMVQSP
UniProt Q96EB1: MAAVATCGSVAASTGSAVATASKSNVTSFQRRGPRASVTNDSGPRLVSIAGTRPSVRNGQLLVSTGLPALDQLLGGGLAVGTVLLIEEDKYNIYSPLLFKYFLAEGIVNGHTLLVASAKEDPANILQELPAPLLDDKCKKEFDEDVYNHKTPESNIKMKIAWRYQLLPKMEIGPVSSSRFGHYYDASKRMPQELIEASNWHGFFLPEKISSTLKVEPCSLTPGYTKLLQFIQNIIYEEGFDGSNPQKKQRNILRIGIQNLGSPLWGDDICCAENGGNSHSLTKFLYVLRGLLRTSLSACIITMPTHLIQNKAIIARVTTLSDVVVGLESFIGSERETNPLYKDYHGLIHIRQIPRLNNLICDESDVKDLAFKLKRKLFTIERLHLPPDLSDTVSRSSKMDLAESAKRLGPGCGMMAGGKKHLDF
UniProt Q32P44: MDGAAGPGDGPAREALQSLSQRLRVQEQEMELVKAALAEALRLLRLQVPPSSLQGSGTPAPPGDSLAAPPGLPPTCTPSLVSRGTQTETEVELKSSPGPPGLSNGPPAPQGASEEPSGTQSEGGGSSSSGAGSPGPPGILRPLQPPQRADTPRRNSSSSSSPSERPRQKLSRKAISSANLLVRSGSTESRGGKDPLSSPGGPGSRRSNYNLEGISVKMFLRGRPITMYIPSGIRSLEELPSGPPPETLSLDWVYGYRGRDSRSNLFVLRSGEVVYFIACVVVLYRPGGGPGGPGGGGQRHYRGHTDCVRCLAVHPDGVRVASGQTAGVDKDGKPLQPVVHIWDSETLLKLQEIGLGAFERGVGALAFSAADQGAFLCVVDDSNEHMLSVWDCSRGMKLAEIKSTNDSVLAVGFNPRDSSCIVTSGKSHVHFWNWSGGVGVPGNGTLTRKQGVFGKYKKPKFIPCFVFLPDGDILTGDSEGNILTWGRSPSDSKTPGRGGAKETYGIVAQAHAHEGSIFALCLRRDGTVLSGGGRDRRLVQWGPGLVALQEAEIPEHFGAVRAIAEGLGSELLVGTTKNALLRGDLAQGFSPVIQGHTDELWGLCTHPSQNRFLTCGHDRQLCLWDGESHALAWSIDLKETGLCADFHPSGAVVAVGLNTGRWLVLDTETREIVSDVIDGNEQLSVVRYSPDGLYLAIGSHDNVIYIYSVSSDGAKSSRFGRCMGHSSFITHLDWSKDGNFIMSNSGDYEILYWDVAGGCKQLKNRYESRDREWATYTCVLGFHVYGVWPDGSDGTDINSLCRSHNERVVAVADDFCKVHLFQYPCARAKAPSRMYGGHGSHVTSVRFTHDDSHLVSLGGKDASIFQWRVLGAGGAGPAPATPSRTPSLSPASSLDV
UniProt Q96KQ7: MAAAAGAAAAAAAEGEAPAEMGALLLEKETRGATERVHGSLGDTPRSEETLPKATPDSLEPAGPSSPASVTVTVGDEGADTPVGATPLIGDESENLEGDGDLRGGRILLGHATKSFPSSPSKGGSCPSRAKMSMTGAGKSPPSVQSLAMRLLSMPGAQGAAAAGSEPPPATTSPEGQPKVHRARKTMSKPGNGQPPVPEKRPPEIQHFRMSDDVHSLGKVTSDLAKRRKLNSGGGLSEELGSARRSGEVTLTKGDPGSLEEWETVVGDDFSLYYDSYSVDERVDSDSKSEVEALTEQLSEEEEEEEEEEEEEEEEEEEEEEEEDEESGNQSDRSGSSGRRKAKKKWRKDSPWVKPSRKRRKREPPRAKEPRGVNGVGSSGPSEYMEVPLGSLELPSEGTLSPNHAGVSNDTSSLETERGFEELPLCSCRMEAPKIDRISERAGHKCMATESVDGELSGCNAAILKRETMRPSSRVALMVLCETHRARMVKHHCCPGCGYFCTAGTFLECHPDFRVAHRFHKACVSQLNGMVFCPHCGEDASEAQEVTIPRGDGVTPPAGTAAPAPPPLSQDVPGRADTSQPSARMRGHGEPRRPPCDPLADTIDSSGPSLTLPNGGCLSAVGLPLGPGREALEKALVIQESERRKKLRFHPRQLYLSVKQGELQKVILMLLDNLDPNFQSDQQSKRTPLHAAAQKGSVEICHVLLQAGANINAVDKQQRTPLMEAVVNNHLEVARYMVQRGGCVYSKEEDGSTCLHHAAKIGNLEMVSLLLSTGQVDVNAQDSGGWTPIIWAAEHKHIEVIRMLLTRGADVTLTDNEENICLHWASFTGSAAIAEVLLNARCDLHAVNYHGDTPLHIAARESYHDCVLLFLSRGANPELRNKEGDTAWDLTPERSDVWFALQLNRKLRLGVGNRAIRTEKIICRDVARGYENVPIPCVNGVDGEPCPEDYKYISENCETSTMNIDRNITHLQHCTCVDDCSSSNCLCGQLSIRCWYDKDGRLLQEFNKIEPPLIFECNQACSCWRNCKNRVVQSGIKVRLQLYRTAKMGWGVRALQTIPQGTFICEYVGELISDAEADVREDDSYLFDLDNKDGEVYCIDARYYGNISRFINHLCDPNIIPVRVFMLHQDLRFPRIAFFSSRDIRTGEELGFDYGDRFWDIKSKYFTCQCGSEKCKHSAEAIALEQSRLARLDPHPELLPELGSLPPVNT

The list shows a part of the results.

Compound in this assay: CC1=C(C(CC(=O)N1)C2=CC=C(C=C2)C(F)(F)F)C(=O)NC3=C(C=C4C(=C3)C=NN4)F
Description: log2 fold change, soluble protein after heating vs DMSO (PISA); higher = thermal stabilisation; K562 cells, 10 uM, 30 min; active = over 0.2 and 3.5 SD of the protein, either way, in both replicates (recomputed). The gist of the method:
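Quantification of soluble protein used TMTpro 16plex LC-MS/MS, with channel sums equalised. Samples were the supernatant after 21,000xg for 90 min of pooled aliquots from K562 cells (2×10^6 cells/mL) treated with 10 μM compound for 30 min, heated for 3 min over 48°C-58°C, and extracted in PBS with 0.5% NP-40 at 4°C. Values, from duplicates, describe thermal stability against control samples on a log2 fold-change scale.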
Take EMC7 (UniProt Q9NPA0): the log2 fold change was inactive: -0.024. Take EIF2S1 (UniProt P05198): the log2 fold change was inactive: 0.011. With EIF3A (UniProt Q14152) the figure was inactive: 0.019. Turning to EIF2B3 (UniProt Q9NR50), the log2 fold change was inactive: 0.035. Turning to ENO3 (UniProt P13929), the log2 fold change was inactive: 0.116. Turning to EIF3L (UniProt Q9Y262), the log2 fold change was inactive: 0.051. With EPB41 (UniProt P11171) the figure was inactive: -0.027; with EIF2B2 (UniProt P49770), inactive: -0.032.

In the case of ENSA isoform 3 (UniProt O43768), the log2 fold change is inactive: 0.053. On to ELP2 isoform 6 (UniProt Q6IA86), for which the log2 fold change is inactive: 0.047.

As for EIF1AX (UniProt P47813), the log2 fold change is inactive: -0.035. With EMC6 (UniProt Q9BV81) the figure was inactive: 0.126; with EIF4B (UniProt P23588), inactive: -0.012; with EIF3H (UniProt O15372), inactive: 0.046. Take EEFSEC (UniProt P57772): the log2 fold change is inactive: 0.014. For ELP4 (UniProt Q96EB1), the log2 fold change is inactive: -0.029. For ELMOD2 (UniProt Q8IZ81) the value was inactive: -0.022; for EML3 isoform 2 (UniProt Q32P44), inactive: 0.069. For the target ELOB (UniProt Q15370), the log2 fold change was inactive: 0.015. With EEF2 (UniProt P13639) the figure was inactive: 0.008; with EI24 (UniProt O14681), inactive: 0.029; with EHMT2 (UniProt Q96KQ7), inactive: 0.001. EIF1 (UniProt P41567): the log2 fold change is inactive: 0.061.
